Reference: PubChem BioAssay AID2685 (National Center for Advancing Translational Sciences (NCATS), 2010)
Screen size: about 320,000 compounds; about 2,100 (0.66%) were called active. This list was built around the results that the source calls inconclusive (neither active nor inactive); the mix of calls is not that of the screen. Calls come from the whole dose curve; as a rule, active = well fitted inhibition curve with a large enough effect in the signal ratio, with a control signal flat (not every such curve was filed as active); inconclusive = small, poorly fitted or top-dose-only effect, or effect the other way, or a change in a side signal; inactive = flat fitted curve, though single readings scatter; the % refers to the signal ratio. Potencies of inconclusive entries are doubtful fits and often do not repeat.

Test: qHTS Assay for Lipid Storage Modulators in Drosophila S3 Cells
Settings: BODIPY lipid droplet fluorescence, 18-24 h, cells fed with added oleic acid; lipid storage change, negative = inhibition: at 46.1 µM (top of the series) unless noted
How it was run: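 Drosophila S3 cells got compounds at several concentrations plus oleic acid (400 uM solution). Laser-scanning cytometry with 488 nm excitation read lipid droplets at 500-530 nm and cells at 575-640 nm. Percent activity was relative to 20 uM Triacsin C.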
% is set by controls: 0 for no effect and ±100 for the full control effect; potency is the fitted concentration of half-maximal effect.

| Compound | lipid storage change, negative = inhibition | Potency |
| --- | --- | --- |
| Cc1c(Cl)cccc1NC(=O)CCN1CCC(C(N)=O)CC1 | inconclusive: 70.6% |  |
| COc1ccccc1C(=O)OCC#CCSc1nnc(-c2cccc3ccccc23)o1 | inconclusive: 38.5% |  |
| N=C1C(c2nc(-c3ccc(Cl)cc3)cs2)=C(O)CN1NC(=O)c1ccc(O)cc1 | inconclusive: 28.5% |  |
| O=C(Nc1cccc(F)c1)C1CCCN(S(=O)(=O)c2cnc[nH]2)C1 (centres undefined) | inconclusive: 108% |  |
| COc1ccc(C(=O)OCCCN(C)C)cc1OC | inconclusive: 49.6% |  |
| COc1ccc2nc(C)c(C(=O)NN)cc2c1 | inconclusive: 32.6% |  |
| Cc1ccc(C(=O)Nn2cnc3scc(-c4cccs4)c3c2=O)c(O)c1 | inconclusive: -8.79% |  |
| CC(OC(=O)/C=C/c1cccs1)C(=O)NC1CCCCC1C (centres undefined) | inconclusive: -34.4% |  |
| CCOc1ccc(NC(=O)CC2C(=O)N(C)C(=S)N2Cc2ccc3c(c2)OCO3)cc1 (centres undefined) | inconclusive: -15.8% |  |
| O=C(O)CCCC(=O)N1CCc2cc(S(=O)(=O)N3CCc4ccccc43)ccc21 |  | inconclusive: 6.51 µM [activator, partial curve, poor fit] |
| C=CCOc1c(Cl)cc(CNc2ccc(C)c(Cl)c2)cc1OC | inconclusive: 270% |  |
| COc1ccc(C=O)cc1COc1ccc(C)cc1[N+](=O)[O-] |  | inconclusive: 3.66 µM [rising, partial curve] |
| COc1ccc(N2CCN(C(=O)c3ccc(C)cc3)CC2)c([N+](=O)[O-])c1 |  | inconclusive: 16.4 µM [activator, partial curve] |
| COc1ccccc1C(=O)NNC1=NS(=O)(=O)c2ccccc21 | inconclusive: 30.6% |  |
| CCCc1cc(-c2n[nH]c(=S)n2-c2cccc(C)c2)cs1 |  | inconclusive: 32.6 µM [falling, single point] |
| N#Cc1c2n(c3c(-c4ccccc4)ncnc13)CCC2 | inconclusive: 30.3% |  |
| Oc1ccccc1-c1cc(C(F)(F)F)nc(-c2ccccc2)n1 |  | inconclusive: 4.11 µM [activator, single point] |
| Cc1cccc(N/C=C(\[N+](=O)[O-])S(=O)(=O)c2ccccc2)c1 | inconclusive: 34.6% |  |
| CC(C)n1cc(-c2nc(C(=O)NN)cs2)c(=O)n(Cc2ccccc2)c1=O | inconclusive: 16% |  |
| O=C(CC(Sc1ccccc1)c1cccs1)c1ccco1 (centres undefined) |  | inconclusive: 5.8 µM [falling, single point] |

| Compound | lipid storage change, negative = inhibition | Potency |
| --- | --- | --- |
| O=C(COC(=O)c1ccccc1O)Nc1cc(S(=O)(=O)N2CCCCCC2)ccc1Cl | inconclusive: -34.9% |  |
| COc1ccc(/C=N/NC(=O)c2c(-c3ccccc3)noc2C)cc1 |  | inconclusive: 9.2 µM [rising, partial curve] |
| CCCCNC(=O)COc1ccccc1C(=O)c1cc(C#N)c(=O)n(CCOC)c1 | inactive: 8.97% |  |
| N#CCCN(Cc1cccnc1)C(=S)Nc1ccc(OC(F)F)cc1 | inconclusive: -29.8% |  |
| CC1(C)Cc2c(c(N3CCCC3)nc3sc(C(=O)Nc4ccccc4)c(N)c23)CO1 |  | inconclusive: 6.51 µM [activator, full curve, poor fit] |
| COc1ccc([C@H]2CC(=O)C=C(c3cccc4c3sc3ccccc34)C2)cc1OC | inconclusive: -72.4% |  |
| CC(NC(=O)C1CCC(=O)N1Cc1ccc(F)cc1)c1ccc2c(c1)OCCO2 (centres undefined) | inconclusive: -31.1% |  |
| COCCNc1ccc([N+](=O)[O-])cc1C(=O)Nc1cccc(C)n1 | inconclusive: -38.5% |  |
| CC(=O)N1CCc2c(sc(NC(=O)CS(=O)(=O)c3ccc(F)cc3)c2C#N)C1 | inconclusive |  |
| COc1cc(CCCN2C(=S)NC[C@@H]2c2ccccc2)cc(OC)c1OC | inconclusive: 19.7% |  |
| CC(C)Oc1ccc(C(=O)NC2CCSc3ccccc32)cc1 (centres undefined) | inconclusive: 63.7% |  |
| COc1ccccc1NC(=O)c1ccc(-c2ccccc2F)o1 |  | inconclusive: 11.6 µM [activator, partial curve] |
| COc1ccc(C2C(C(=O)c3ccc(C)o3)=C(O)C(=O)N2Cc2cccnc2)cc1OC (centres undefined) |  | active: 0.13 µM |
| CCn1nc(C(=O)Nc2nc3ccccc3[nH]2)c2ccccc2c1=O | inconclusive: 15.1% |  |
| O=C(CSc1nc(=O)n2ccccc2n1)OCc1ccccc1 | inconclusive: 7.9% |  |
| Cc1ccc2c(c1)NC(=O)C(CC(=O)NCCCN1CCCCC1)O2 (centres undefined) |  | inconclusive: 6.51 µM [falling, partial curve, poor fit] |
| COc1cc(/C=C\C(=O)NCc2ccc3c(c2)cc(C)n3C)cc(OC)c1OC | inconclusive: 24% |  |
| CCN1CCCC1CNC(=O)Cn1cc2c(n1)CCC(C)C2 (centres undefined) | inconclusive: 1.56% |  |
| CNS(=O)(=O)c1cccc(C(=O)NCC2CCCCC2)c1 | inconclusive: 98.1% |  |

Quoted at random: 3 entries already listed.

| Compound | lipid storage change, negative = inhibition | Potency |
| --- | --- | --- |
| COc1ccccc1NC(=O)c1ccc(-c2ccccc2F)o1 |  | inconclusive: 11.6 µM [activator, partial curve] |
| Cc1ccc2c(c1)NC(=O)C(CC(=O)NCCCN1CCCCC1)O2 (centres undefined) |  | inconclusive: 6.51 µM [falling, partial curve, poor fit] |
| CC(C)Oc1ccc(C(=O)NC2CCSc3ccccc32)cc1 (centres undefined) | inconclusive: 63.7% |  |
